PubChem BioAssay AID1224828 – NIAID, 2016
In all, the deposit lists about 17,000 reagents; shown is a part drawn at random. In the full data, 762 (4.5%) got an active call. 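Active calls include both raised and lowered p65 entry, mostly lowered; wells with fewer than 50 cells lack a z-score.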 The raw values are shown without normalisation.

Assay: 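Knock-downs that increase or decrease LPS-induced p65 nuclear translocation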 (primary screen)
System: mouse RAW264.7 G9 macrophage reporter cells (GFP-p65, Tnf promoter-mCherry)
Reagents: siRNA pool against mouse genes, 100 nM
Duration: 2 days siRNA transfection, then 40 min LPS before fixation
Conditions: LPS (Salmonella minnesota R595) at 10 ng/ml
Measured: 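Microscopy ratio of nuclear to perinuclear-ring GFP-p65 signal, scaled to the plate median; gene score is the average of two replicate robust z-scores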
Scale: p65 translocation robust z-score: higher = more nuclear NF-kappaB p65 after LPS than the plate median; nuclear/cytoplasmic p65 ratio: higher = more nuclear NF-kappaB p65
Rule for the call: 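Called active when z exceeds 3.3 or falls under -1.56 (median of Tlr4 controls), giving activity score of at least 50; no calls for control wells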
Meaning of the calls: active = hit (p65 shift raised or lowered); inactive = no clear change

gene knocked down	p65 translocation robust z-score	nuclear/cytoplasmic p65 ratio, rep 1	nuclear/cytoplasmic p65 ratio, rep 2	low cell count flag	outcome
Elovl7	0	1.39	1.43	enough cells to score	inactive
Pcsk1	1.27	1.65	1.55	enough cells to score	inactive
Ccdc181		1.19	1	fewer than 50 cells per well; well left out of scoring	inactive
Arl8a	-1.36	1.41	1.31	enough cells to score	inactive
Pax7	-0.55	1.33	1.18	enough cells to score	inactive
D830044D21Rik	1.89	1.89	1.78	enough cells to score	inactive
Klrb1f	-0.78	1.2	1.42	enough cells to score	inactive
Mef2b	-1.22	1.15	1.2	enough cells to score	inactive
Spock1	-0.53	1.36	1.16	enough cells to score	inactive
Utp6	-0.6	1.2	1.19	enough cells to score	inactive
Traip	0.76	1.54	1.68	enough cells to score	inactive
Pgcka1	-0.58	1.3	1.52	enough cells to score	inactive
Ube2l6	0.01	1.55	1.47	enough cells to score	inactive
Mob3a		1.64	1.98	fewer than 50 cells per well; well left out of scoring	inactive
Prss59		1.14	1.08	fewer than 50 cells per well; well left out of scoring	inactive
Nmi	0.54	1.51	1.49	enough cells to score	inactive
Nt5c1b	0.24	1.83	1.5	enough cells to score	inactive
Mtg2		1.42	1.55	fewer than 50 cells per well; well left out of scoring	inactive
Txn2		1.34	1.1	fewer than 50 cells per well; well left out of scoring	inactive
Tead4		1.31	1.17	fewer than 50 cells per well; well left out of scoring	inactive
Ang2	0.05	1.66	1.6	enough cells to score	inactive
Coasy	0.06	1.76	1.35	enough cells to score	inactive
Trim13	1.14	1.64	1.69	enough cells to score	inactive

Already shown: entries from further up.
gene knocked down	p65 translocation robust z-score	nuclear/cytoplasmic p65 ratio, rep 1	nuclear/cytoplasmic p65 ratio, rep 2	low cell count flag	outcome
Pcsk1	1.27	1.65	1.55	enough cells to score	inactive
Ccdc181		1.19	1	fewer than 50 cells per well; well left out of scoring	inactive
Arl8a	-1.36	1.41	1.31	enough cells to score	inactive
Pax7	-0.55	1.33	1.18	enough cells to score	inactive
D830044D21Rik	1.89	1.89	1.78	enough cells to score	inactive

Continued:
gene knocked down	p65 translocation robust z-score	nuclear/cytoplasmic p65 ratio, rep 1	nuclear/cytoplasmic p65 ratio, rep 2	low cell count flag	outcome
Psmg3	-0.19	1.31	1.32	enough cells to score	inactive
Psmd5	-0.32	1.46	1.36	enough cells to score	inactive
Psph	0.75	1.71	1.4	enough cells to score	inactive
Gabra6	1.75	1.74	1.52	enough cells to score	inactive
Manea		1.12	1.47	fewer than 50 cells per well; well left out of scoring	inactive
Trmt10a		1.46	1.18	fewer than 50 cells per well; well left out of scoring	inactive
Cx3cr1	-0.75	1.39	1.48	enough cells to score	inactive
Ints2	3.46	1.71	1.65	enough cells to score	active
Cfap57	1.06	1.75	1.54	enough cells to score	inactive
Ttll9		1.35	1.33	fewer than 50 cells per well; well left out of scoring	inactive
Arhgap1	0.01	1.61	1.63	enough cells to score	inactive
Pcna	-1.42	1.31	1.18	enough cells to score	inactive
Actl9		1.47	1.28	fewer than 50 cells per well; well left out of scoring	inactive
Rho	-0.2	1.52	1.52	enough cells to score	inactive
Art3	0.92	1.8	1.72	enough cells to score	inactive
Dyrk2	-0.87	1.55	0	enough cells to score	inactive
Dgkq	-1.78	1.41	1.15	enough cells to score	active
